From PubChem BioAssay AID1347426 (Functional Genomics Laboratory (NCATS/FGL), 2020)
The whole screen tested about 31,000 sequences, of which about 1,400 (4.5%) were called active.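 The calls were made as follows: active = median seed-adjusted z-score above 1 or below -1; inactive = the rest.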 The list shows a part of the results.

test: Novel Modifiers of Survival Motor Neuron (SMN) Protein: Gene Identification via Genome-wide siRNA Screen; settings: HEK293T SMN2-luciferase reporter, siRNA knockdown, 72 h; actives lie on both sides;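 also: luminescence tracks full-length SMN protein made from the SMN2 reporter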
Procedure, shortened: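 Genome-wide siRNA screen (10418 genes, 3 siRNAs each, 1 pmol per well) by reverse transfection in HEK293T cells stably carrying an SMN2-luciferase reporter; luminescence after 72 hours, normalized to negative-control siRNA, log10-transformed, MAD-scored.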

Sequence	median seed-adjusted z-score
GUCCAAAUGAAUUACCUGATT against NDN	inactive: -0.146
GGACAAGUGCAAACGUAAATT against CR1L	inactive: -0.038
CCAACUACACUGACUGGUUTT against TSPAN4	inactive: 0.417
GACCAGAUAUUGUGAACUUTT against RPL4	inactive: 0.573
GCUUGAUACCUUUAUAGGATT against UGP2	inactive: 0.0766
CUCAUUGAGUUGGACAAAUTT against RHOU	active: -1.44
CGACGAUUCUUCUACUCAATT against CDKN1B	inactive: 0.244
GGAGUUCAAUGUAUGUCUATT against SPINK6	inactive: 0.275
AGUAGAACGUGUACGCAGATT against MGST1	inactive: -0.0144
CCCUGUUCGGAGAUUGAUATT against BARHL2	inactive: -0.147
GCAGGGAGAGAGCAACCAATT against GHRH	inactive: -0.16
GGACUAUCAGUGCAUCCAATT against FNBP1L	inactive: -0.0815
GGAGUUCGAUUAUCAACAATT against DGKH	inactive: 0.13
GGAUAGGCACUCUUCCGAUTT against CHST9	inactive: 0.252
GCAAGAUCGUCCACUACAATT against DMPK	inactive: -0.0417
CAGUGACUAUGAGAGUGUATT against SCARB2	inactive: -0.244
AGAAAGGUUUUACUACAAUTT against POLR2C	active: -2.95
CAGUGUUAAUGACCGAAGATT against EIF4G1	inactive: -0.978
GUGUCAAAGUGGAGAGGCATT against CTSD	inactive: -0.282
GCAUUUACCGCCGAGCUAATT against COL8A1	inactive: -0.848
GGCAUCUCAUGGUCUGGAATT against PIGO	inactive: -0.218
CGGCACAUCCUGCUUUGUUTT against ZNF213	active: 1.37

Sequence	median seed-adjusted z-score
GUGCAGAUCUUAGAGUACATT against ZFP82	inactive: 0.57
GCAGUUCCCUAACGCAUCATT against RECQL	inactive: -0.905
GAACUUAUAAGUGCAGCAATT against ZNF547	inactive: 0.099
GCAAGAAUUUCGAUGACUATT against FABP3	inactive: -0.0786
GCAUGUGAAUGUCAGGAAUTT against ZNF439	inactive: -0.26
GCAUCGAGCAGGAACAGAATT against ATP2B2	active: 1.37
GCACAAGGCUCUACAACCATT against SLC25A35	inactive: -0.762
GGCGAACCCUGACUAUCAATT against NR4A2	inactive: -0.654
GGUUCUAUACUUACAUCAATT against SLC15A1	inactive: -0.693
GACCGUUCACUGUACAACATT against FUT9	inactive: 0.0444
CCAAUCCUUUGUAAUCGAATT against PLCL1	inactive: 0.000254
GGAAAGUUCUUUAGACUUATT against ZNF529	inactive: -0.243
GCUCCUCUGAUAUCACGUUTT against LMO7	inactive: 0.417
GGAAAUGACUGGAGUUGGATT against ENOX2	inactive: 0.0233
AGAAUUACCCACUUCGUAATT against BAHD1	inactive: 0.376
GCAGCACACCGCUAAACAATT against GRHL1	inactive: 0.115
GGAUGGAUGAGUACGCAGATT against GALNT10	inactive: 0
GGGUUGUUUAUGUUACAAATT against MNDA	inactive: 0.232
ACUUUUAUGUUGAUGAGAATT against SERPINA4	inactive: 0.419
CGCUGGAAGUUUUGCGUGATT against ECE1	inactive: -0.344
GGACCUCAAUGGGUCACAATT against RASL10A	inactive: 0.151
AACCAUAACUCAUUCCUGATT against RHOH	inactive: 0.443

Sequence	median seed-adjusted z-score
GCUGUGUACUUCAUCCGGATT against ZNF3	inactive: -0.149
GGUCAUGCAGGGUUGGAAATT against ALDH1B1	inactive: 0.105
GCGACAACGUGGUACUCAUTT against CORO1B	inactive: 0.405
AAACUCCAGAUAAAGUAAATT against CTSH	inactive: -0.81
CAAAAUCGAUGCAAACAAUTT against BBOX1	inactive: 0.152
AGCUCAGAGAGGAUCAAGATT against LEPREL2	inactive: 0.0022
CAGGCAGAUUGCUCAAGAATT against KSR2	inactive: -0.371
GGCUGUUGCUAAUGCUAAATT against PLA2G4C	inactive: 0.331
CCACCUUAAAACUCACGUUTT against MTF1	inactive: -0.709
CCACAAGCCCAAACAAUCATT against SP1	inactive: 0.544
GGAGUUUGCUUACCACGGUTT against RFX6	inactive: 0.119
GGAUAUAAGAGACCAUUGATT against KIF3B	inactive: 0.554
AGAUUGACUCGGUGAAAUATT against RAC2	inactive: -0.596
AGAUGGUCAUCUUACUCAUTT against PTGER4	inactive: -0.289
CAGUAGUGAUAUCCACUUATT against OXGR1	inactive: -0.0388
CAUCCGAUCUGAUAGGUCUTT against EFEMP1	inactive: 0.0157
CAAGGAGCAGGGAUAUGAATT against ADAP2	active: -1.1
CCUUCUACAUGACCAACUATT against BCKDHA	inactive: -0.299
GUACAAUUCGUGUCAAUUUTT against PPIE	inactive: -0.699
GGAAGAGAUUUAUAACAAATT against DLG3	inactive: -0.317
CAGGAAACCUGACAGUUCATT against IL4R	inactive: 0
GGUCAGAGCUGACGAUGAATT against HSP90B1	inactive: 0

Sequence	median seed-adjusted z-score
AGAAAGGCCUGUUCAACUATT against DUSP10	inactive: 0.28
GCCUCUACAAGGAUUAUGATT against GJB4	inactive: 0.131
GCGGCUAGCUUUACGAGAATT against ZFYVE16	inactive: 0.314
AAGCUUGUGCUGUAAAAUATT against NDUFA2	inactive: -0.694
UCAUCGUCCUCACUUUUAATT against LRRC33	inactive: -0.194
GGACAAUCCCGAAUAUGUUTT against CRLS1	inactive: 0.555
GCAACGAAGUGGUGAAUCUTT against UPF2	inactive: -0.376
GGGCGAGCAUUUUCGAGAATT against USP7	inactive: 0.105
CGGGAGCAGUUUAACGAAUTT against RCN1	inactive: 0.236
CGUUUGUACCUAUCAGUUUTT against DONSON	inactive: -0.882
UGAUUGCUGCGGACCGCUATT against MC2R	inactive: 0
CGAUAUAUCUCAUAUAACATT against ENPEP	inactive: 0.666
CAACUGAUGAGGUCGAGAATT against ZNF638	inactive: 0.63
CAGUGAUGACAAUAAACAATT against PCDHA6	inactive: 0.419
GGUUAGAAGCUCAAGGGUATT against BRD1	inactive: 0.0644
GCACAAGUCCAGUCUCUGATT against KRT39	inactive: 0.161
CCGUUACCCUUGACCUGGATT against KIF7	inactive: 0.0274
GCUUCAUUGAGUACGAGAATT against PUF60	active: 2.26
ACCUAGAGCCGUUUCUAAATT against CD14	inactive: 0.0723
CCUCAAAGCUUGUAUUCCATT against KCNMB4	inactive: 0
GGCUCUUCUUGGAUAGAGATT against EOMES	inactive: -0.0248
CAUCGGCCUGAGAACAAUATT against ALPK2	inactive: -0.154

Sequence	median seed-adjusted z-score
CUAAGUACUUUGAAUCCAATT against CD48	inactive: -0.0981
AGAGGUUUGGCAGAAAUACTT against NPFF	inactive: -0.631
CUAUCCCUGUGAUCAAUGUTT against ZNF271	inactive: 0.484
CGGUGAAAGUGCGGGAACATT against ATOH1	inactive: -0.374
GAGACAACAUGAAUGACAATT against CHGB	active: -1.29
GGCUAAAUGUGAGAAUCCATT against IL13RA1	inactive: 0.269
CUACCGCAACAUCUGGAAATT against SLC22A17	inactive: -0.149
AGACAGACCUGCGAACAGATT against RND1	inactive: -0.393
CCAUGCAAAUGAAAUGUAATT against IGF2	inactive: -0.0306
GCCCGUAAUUUAUCGCGCUTT against PTGDR	inactive: -0.158
ACAGAGCUAGUGUCCAAAATT against RXRB	inactive: 0.147
AGACAAACGAUGAUAUGAATT against VASN	inactive: 0.213
GCUUUUCGGCCCUGACUUATT against SERPINF2	inactive: 0.629
GCAUAUUACAUCACCACGATT against SGMS1	inactive: -0.287
GGCUCAUUGAGACGACUGATT against RCADH5	inactive: -0.158
GGAGAUAGCUAGACCUCUUTT against NES	inactive: 0.613
CCCUUGUUGCAAGAAGAAATT against MICB	inactive: 0.162
CACGCACCUUGGAAUUGAATT against CSNK1D	inactive: 0.202
CUACCGGAAUGAAUCUCUATT against PIK3R1	inactive: 0.196
CCAUGUUCCAACAUCGGUATT against RLF	inactive: 0

Single values from the entries so far:
Value for GUGCAGAUCUUAGAGUACATT against ZFP82 under median seed-adjusted z-score: inactive: 0.57
Value for GCAUCGAGCAGGAACAGAATT against ATP2B2 under median seed-adjusted z-score: active: 1.37
Value for CCCUUGUUGCAAGAAGAAATT against MICB under median seed-adjusted z-score: inactive: 0.162
Value for GCAUUUACCGCCGAGCUAATT against COL8A1 under median seed-adjusted z-score: inactive: -0.848
Value for AGAUUGACUCGGUGAAAUATT against RAC2 under median seed-adjusted z-score: inactive: -0.596
Value for GAGACAACAUGAAUGACAATT against CHGB under median seed-adjusted z-score: active: -1.29
Value for CAGUGACUAUGAGAGUGUATT against SCARB2 under median seed-adjusted z-score: inactive: -0.244
